# In patent US6479459:
# The chains behind the UniProt entries cited, without tags or fusion partners. Where a name states a change or a piece, a line headed by the entry shows the natural chain unless it says otherwise.
# UniProt P52799: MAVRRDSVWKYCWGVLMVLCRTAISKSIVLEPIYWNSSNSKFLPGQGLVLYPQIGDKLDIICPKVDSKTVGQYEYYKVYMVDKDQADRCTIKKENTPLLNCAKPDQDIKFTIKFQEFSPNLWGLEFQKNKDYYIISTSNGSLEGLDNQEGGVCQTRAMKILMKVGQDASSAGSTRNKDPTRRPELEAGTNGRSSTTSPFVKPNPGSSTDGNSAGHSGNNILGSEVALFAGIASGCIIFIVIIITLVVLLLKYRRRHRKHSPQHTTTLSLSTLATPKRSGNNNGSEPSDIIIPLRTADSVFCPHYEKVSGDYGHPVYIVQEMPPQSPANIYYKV
# UniProt P09759: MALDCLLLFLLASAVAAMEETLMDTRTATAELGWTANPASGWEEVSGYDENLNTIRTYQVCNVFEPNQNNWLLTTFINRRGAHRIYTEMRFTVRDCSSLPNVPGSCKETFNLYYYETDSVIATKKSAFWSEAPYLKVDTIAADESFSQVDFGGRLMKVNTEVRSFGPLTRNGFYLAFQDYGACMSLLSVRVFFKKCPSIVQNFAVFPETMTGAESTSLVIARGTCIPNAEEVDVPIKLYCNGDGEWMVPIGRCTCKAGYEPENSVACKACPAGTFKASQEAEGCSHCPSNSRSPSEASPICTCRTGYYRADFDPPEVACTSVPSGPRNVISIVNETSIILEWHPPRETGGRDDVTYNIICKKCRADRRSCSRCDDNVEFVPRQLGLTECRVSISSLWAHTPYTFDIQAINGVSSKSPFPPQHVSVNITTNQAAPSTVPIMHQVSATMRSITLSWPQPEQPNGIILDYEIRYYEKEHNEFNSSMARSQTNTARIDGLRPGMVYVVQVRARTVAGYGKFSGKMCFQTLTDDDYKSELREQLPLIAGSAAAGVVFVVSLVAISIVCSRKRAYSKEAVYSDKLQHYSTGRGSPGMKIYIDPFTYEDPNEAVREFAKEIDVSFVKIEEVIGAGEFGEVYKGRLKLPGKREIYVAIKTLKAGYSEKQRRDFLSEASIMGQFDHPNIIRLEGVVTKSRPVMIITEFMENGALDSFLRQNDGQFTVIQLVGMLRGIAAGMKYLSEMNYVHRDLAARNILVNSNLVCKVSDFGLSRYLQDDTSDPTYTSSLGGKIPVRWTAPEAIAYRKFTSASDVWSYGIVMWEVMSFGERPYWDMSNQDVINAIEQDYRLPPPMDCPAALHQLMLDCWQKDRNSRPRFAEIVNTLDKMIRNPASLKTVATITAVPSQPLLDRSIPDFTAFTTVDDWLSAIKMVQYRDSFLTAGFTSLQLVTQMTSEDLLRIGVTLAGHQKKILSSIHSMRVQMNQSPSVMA
# These are yes or no findings as the source states them, for the method shown. Some entries that bind do so weakly or less than the wild type.
# Target: human LERK-5 (recombinant, full length, expressed on the surface of transfected CV1-EBNA-1 cells) (human) (UniProt P52799)
# Test: Refers to the cell binding assay of example 4 (elk/Fc on cells expressing LERK-5)
substance,measurement,value
soluble elk/Fc fusion protein (rat elk extracellular domain fused to human IgG1 Fc) (from UniProt P09759 18-540; P01857 99-330),binding,binds
